Each number is a percent effect as filed. How 0% and 100% were set is not recorded. Most values in the screen are low, and negative values occur. The compounds are a random part of those screened. Two or more numbers in one place are separate tests of the same structure; such repeats can differ widely. A dash means the value is not listed here; it may have been measured.

By UniProt entry, the sequences of proteins in these tests, tags left out. Residues count along the entry.
UniProt Q4DA54, 1-478: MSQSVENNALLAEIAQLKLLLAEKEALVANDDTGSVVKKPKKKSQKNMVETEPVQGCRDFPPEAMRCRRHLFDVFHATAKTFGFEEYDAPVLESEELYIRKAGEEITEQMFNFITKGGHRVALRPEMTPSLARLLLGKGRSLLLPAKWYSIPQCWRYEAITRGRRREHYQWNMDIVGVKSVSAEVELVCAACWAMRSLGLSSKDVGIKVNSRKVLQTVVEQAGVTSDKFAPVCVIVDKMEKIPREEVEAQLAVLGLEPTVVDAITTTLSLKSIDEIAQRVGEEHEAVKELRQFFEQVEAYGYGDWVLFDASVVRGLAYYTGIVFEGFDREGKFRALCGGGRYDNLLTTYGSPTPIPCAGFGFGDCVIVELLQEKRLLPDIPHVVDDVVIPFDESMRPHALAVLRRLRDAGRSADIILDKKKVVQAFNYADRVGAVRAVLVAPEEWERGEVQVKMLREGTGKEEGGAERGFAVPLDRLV
UniProt P9WPC5, whole entry: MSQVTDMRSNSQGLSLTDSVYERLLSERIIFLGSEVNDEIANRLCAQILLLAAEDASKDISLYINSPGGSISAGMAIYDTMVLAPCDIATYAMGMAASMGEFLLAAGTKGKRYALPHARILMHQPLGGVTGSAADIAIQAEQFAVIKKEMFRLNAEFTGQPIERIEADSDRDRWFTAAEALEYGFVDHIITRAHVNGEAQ
UniProt P9WPC3, whole entry partner: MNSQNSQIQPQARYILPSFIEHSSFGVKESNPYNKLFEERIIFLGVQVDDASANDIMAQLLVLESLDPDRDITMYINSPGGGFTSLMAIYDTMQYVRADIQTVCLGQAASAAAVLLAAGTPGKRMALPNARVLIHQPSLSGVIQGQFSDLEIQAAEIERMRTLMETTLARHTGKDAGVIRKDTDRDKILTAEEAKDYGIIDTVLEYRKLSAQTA
UniProt Q8IDJ8, 1-583: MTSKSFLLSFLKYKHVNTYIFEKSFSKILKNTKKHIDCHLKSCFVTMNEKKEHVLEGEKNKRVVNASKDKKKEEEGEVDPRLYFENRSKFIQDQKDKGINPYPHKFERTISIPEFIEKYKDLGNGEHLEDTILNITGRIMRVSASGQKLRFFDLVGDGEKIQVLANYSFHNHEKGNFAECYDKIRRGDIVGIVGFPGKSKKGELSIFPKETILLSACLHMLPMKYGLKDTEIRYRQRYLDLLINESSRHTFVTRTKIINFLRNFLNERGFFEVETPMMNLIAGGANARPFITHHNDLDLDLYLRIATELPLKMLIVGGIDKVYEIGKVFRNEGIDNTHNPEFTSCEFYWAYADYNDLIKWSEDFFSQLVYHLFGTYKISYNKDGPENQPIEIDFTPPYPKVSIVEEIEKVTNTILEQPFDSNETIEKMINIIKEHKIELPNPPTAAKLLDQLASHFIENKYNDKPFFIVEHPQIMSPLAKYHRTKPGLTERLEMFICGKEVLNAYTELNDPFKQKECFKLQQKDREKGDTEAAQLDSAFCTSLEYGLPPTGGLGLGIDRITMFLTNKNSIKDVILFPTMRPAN

Leishmania in macrophages: 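Cell assay of Leishmania donovani living inside macrophages; the read-out is not stated. Concentration: 30 µM. The record gives no direction; compounds that gave an IC50 in retests scored well above the rest, so higher reads as stronger inhibition. About 69,000 compounds were tested under these conditions; 1.5% (about 1,000) showed 50% or more at least once.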
TcHisRS: 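Histidine-tRNA ligase, Trypanosoma cruzi CL Brener (UniProt Q4DA54). Enzyme assay of histidyl-tRNA synthetase; the read-out is not stated. Tested at 30 µM. The record gives no direction; compounds that gave an IC50 in retests scored well above the rest, so higher reads as stronger inhibition. Size under these conditions: about 69,000 compounds, about 31 of them at 50% or above in at least one test.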
ClpP1P2: 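Protease assay of ClpP1P2, read by the AMC dye that it sets free. Target: ClpP1P2, Mycobacterium tuberculosis (UniProt P9WPC5 and UniProt P9WPC3). Concentration: 50 µM. Direction is inferred from only a few compounds that gave an IC50; most scored high, so higher reads as stronger inhibition. Most other retested compounds had strongly negative values. Size under these conditions: about 69,000 compounds, about 10 of them at 50% or above in at least one test.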
Toxoplasma: 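Assay of Toxoplasma gondii numbers, read through their beta-galactosidase reporter with a colour substrate. Concentration: 10 µM. Higher reads as fewer parasites (inferred from which compounds were picked for retests). About 67,000 compounds were tested under these conditions; 0.38% (about 260) showed 50% or more at least once.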
PfKRS1: 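Enzyme assay of the cytosolic lysyl-tRNA synthetase in 384-well plates, read by luminescence. Target: Lysine-tRNA ligase, Plasmodium falciparum 3D7 (UniProt Q8IDJ8). Concentration: 30 µM. Higher reads as stronger inhibition, judged from the few compounds that gave an IC50. Of about 69,000 compounds tested this way, about 49 (0.071%) reached 50% or more in at least one test.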

structure,Leishmania in macrophages,TcHisRS,ClpP1P2,Toxoplasma,PfKRS1
CN(C)CCN(C)S(=O)(=O)Cc1ccc(Br)cc1,-36.41,7.843,4.503,2.483,-8.025
NC(=O)C1CN(C(=O)Nc2ccc(SC(F)(F)F)cc2)CCO1 (centres unmarked),21.43,1.163,-21.78,-20.75,2.948
CC(C)c1ccc(/C=C/CC(=O)NC2CCN(C(N)=O)CC2)cc1,-5.908,4.938,-6.339,18.48,3.811
CC(CN1CCOCC1)NC(=O)N1CCCC1 (centres unmarked),-15.39,5.217,-2.785,4.689,-0.3214
CNC(=O)c1nc2c(s1)CCN(C(=O)c1ccc(OC)cc1)CC2,-6.599,3.922,3.403,2.028,0.779
CN(C)C(=O)CN1CCCC2(CCN(c3ccsc3)C2=O)C1.O=C(O)C(F)(F)F (centres unmarked),-2.413,-,-,1.054,-
[H][C@@]12CCN(C(=O)CCc3ccc(Cl)cc3)C[C@]1([H])OCCNC2=O,36.85,-,-,8.01,-
Cc1ccc(C(=O)N2CCN(C(=O)Cc3ccccn3)CC2)c(C)c1,31.12,0.5634,18.51,-6.099,0.6391
CCCc1nnsc1C(=O)N1CCN(CC(C)O)CC1.Cl (centres unmarked),11.81 and 0.1087,-,-,-10.3,-
Cn1cc(CN(CC2(O)CCNC2)C2CCCCC2)cn1 (centres unmarked),-4.136,11,10.5,8.996,2.788
O=C(c1ccoc1)N(Cc1ccncc1)C1CC1,53.31,3.96,-22.5,-55.26,-1.586
O=C(O)C(F)(F)F.O=C(O)C(F)(F)F.O=C(O)C(F)(F)F.[H][C@]12CCN(Cc3ccoc3)C[C@@]1([H])OCCN(Cc1cccnc1)C2,40.08,-,-,-9.42,-
Cc1nnc(-c2cccc(C#N)c2)n1C1CCCN(C(C)C)C1=O (centres unmarked),34.49,0.4975,-9.699,-15.48,2.563
Cc1cc(CN2C[C@@H]3COC[C@]3(c3nnc(C)o3)C2)no1,-,2.454,1.354,-,5.575
CS(=O)(=O)N1CC(c2nc[nH]n2)c2cc(C(=O)NC3CCCC3)ccc21 (centres unmarked),11.4,5.806,4.82,-2.066,-1.06
O=C(CC1CCCC1)N1C[C@H](Oc2cccnc2)[C@H]2OCCC[C@H]21,-,-0.4808,10.54,-,0.547
Cc1cc(C(=O)N2CCC3(CC2)CC(c2cccnc2)C(=O)N3C)no1.O=C(O)C(F)(F)F (centres unmarked),-2.431,-,-,-4.882,-
Cc1ccc(CC(NC(=O)CN(C)C2CC2)c2ccccn2)cc1 (centres unmarked),-19.18,17.35,-21.15,27.79,0.443
COc1cc(CN2CCC(NC(=O)c3cccn3C)C2)cc(OC)c1 (centres unmarked),23.75,-1.02,-8.984,-5.113,0.782
O=C(O)C(F)(F)F.c1csc(CN2CCc3ncnc(C4CCOC4)c3CC2)c1 (centres unmarked),11.2,-,-,0.9852,-
Cc1cncc(C(=O)NCCSCc2cccs2)c1,21.55,2.041,-6.863,11.02,1.772
Cc1cc(C)n(CC2CCCN2CCC(=O)Nc2cc(C)on2)n1 (centres unmarked),14.66,1.433,0.1268,-17.44,-0.6612
CC(=O)N1CCCN(C2CCCCc3ccccc32)CC1 (centres unmarked),18.35,0,-2.629,-10.89,0.8658
O=C(Cc1ccsc1)N1CCOC(c2nc(-c3ncccn3)no2)C1 (centres unmarked),11.98 and 20.35,14.44,5.92,8.16,5.459
Cc1ccc(N2CCCC(NCc3ccncc3)C2)nn1 (centres unmarked),3.682,3.383,15.29,0.5062,1.597
Cn1ncc2c(N3CCN(C(N)=O)CC3)nc(C3CCCC3)nc21,-21.76,7.317,10.89,2.21,2.404
CC(C)N(C)Cc1nnc2n1CCCN(C(=O)C1CCCO1)C2 (centres unmarked),18.01,5.063,2.936,-4.261,7.563
F[C@@H]1CN(CC2CC2)C[C@@H]1OCc1nc2ccccc2[nH]1,-8.349,-9.453,-0.4992,-4.041,1.808
c1cc(CN2C[C@@H]3OCCN(CC4CCCO4)[C@@H]3C2)co1 (some centres unmarked),-,2.941,-1.851,-,5.617
Cc1cc2c(N)nc(=O)n(CC(=O)Nc3ccccc3)c2s1,6.295,-1.98,3.594,6.065,3.815
Cn1cc(CC2CC(=O)N(Cc3ccccc3OC(F)F)C2=O)cn1 (centres unmarked),7.915,4.867,-19.04,-4.772,1.025
O=c1n(CCSCCOc2ccc(Br)cc2)nc2ccccn12,-14.94,5.155,0.1847,-0.7588,2.031
Cc1cc(C)nc(N2CCN(Cc3cc4n(n3)CCNC4)CC2)n1,34.81,1.538,-2.906,-0.08654,2.255
Cc1cc(C(=O)NCc2ccc(N3CCCC(C(N)=O)C3)cc2)[nH]n1 (centres unmarked),-9.525,0.3774,-0.5254,18,0.4187
COCCOCC1CCN(C(=O)c2ccc3[nH]cnc3c2)C1 (centres unmarked),19.98,4.762,7.935,-11.23,4.204
Cc1cc(CNc2ccc(CC(=O)N(C)c3ccccc3)cc2)no1,3.75,2.222,13.18,3.239,-1.328
CC(=O)NCCSCCOc1cccc(Br)c1,9.427,4.938,-0.8913,-9.993,-1.133
[H][C@@]12COC[C@]1(COC)CN(Cc1cccnc1OC)C2,9.546,-,-,-1.674,-
Cn1cnnc1C1CCN(C(=O)c2cc3c(s2)CCC3)CC1,23.34,4.094,-8.428,2.202,-0.7777
O=C(OCc1ccccc1)c1cccc(NC(=O)C2COCCO2)c1 (centres unmarked),33.69,5.102,-13.18,-34.16,3.275
CC1COCCN1C(=O)NCCCn1ccnc1 (centres unmarked),36.25,1.685,-6.725,-2.742,7.283
Cc1cc(C)n(CCCNC(=O)[C@@H](C)NC(=O)OC(C)(C)C)n1,28.82,3.261,-6.099,4.374,5.096
COCC(=O)NCc1cc2n(n1)CCCN(Cc1ccccc1SC)C2,-0.4508,6.098,-1.683,-31.67,9.52
Cc1cc(C)n(C2CN(c3nc(N)nc4c3CCCC4)C2)n1,-8.123,12.73,-0.9184,-19.61,2.719
CCN1CCOC(CNCc2cnc(N(CC)CC)s2)C1 (centres unmarked),18.29,13,24.05,11.66,4.279
COc1cccc(C(=O)NCC2CCN(C(=O)c3ccoc3)CC2)c1,42,6.122,-13.36,-15.88,3.201
c1cnc(C2CCCN2c2cnccn2)cn1 (centres unmarked),-5.612,5.243,6.967,-16.11,-0.5248
CN1CCCC1CNC(=O)CCCOCc1ccccc1 (centres unmarked),12.53,-0.3802,2.409,-19.34,-0.3517
Cc1nn(C)cc1CN(C)Cc1cc2c(cc1OC(F)F)OCO2,34.55,-3.39,-3.26,4.2,7.458
COc1ccccc1CC(=O)N1CCN(Cc2ccco2)C[C@@H]1C,19.79,8.046,7.751,-19.47,2.491
COc1ccc2c(c1)OCC(CNC(=O)c1cc(C(C)C)on1)C2 (centres unmarked),-19.34,-1.212,-4.46,-24.32,2.415

The first 4 entries again:

| structure | Leishmania in macrophages | TcHisRS | ClpP1P2 | Toxoplasma | PfKRS1 |
|---|---|---|---|---|---|
| `CN(C)CCN(C)S(=O)(=O)Cc1ccc(Br)cc1` | -36.41 | 7.843 | 4.503 | 2.483 | -8.025 |
| `NC(=O)C1CN(C(=O)Nc2ccc(SC(F)(F)F)cc2)CCO1` (centres unmarked) | 21.43 | 1.163 | -21.78 | -20.75 | 2.948 |
| `CC(C)c1ccc(/C=C/CC(=O)NC2CCN(C(N)=O)CC2)cc1` | -5.908 | 4.938 | -6.339 | 18.48 | 3.811 |
| `CC(CN1CCOCC1)NC(=O)N1CCCC1` (centres unmarked) | -15.39 | 5.217 | -2.785 | 4.689 | -0.3214 |

Measurements from “University of Dundee, Small-Polar-MMV Screening Library” (2021), ChEMBL document CHEMBL3988442.